Measured values reported in patent US20260035452A1, “NOVEL INTERLEUKIN-17A (IL-17A)-DERIVED PEPTIDE AND NEUTRALIZING ANTIBODY (AB17-IPL-1)” (THE UNIVERSITY OF BIRMINGHAM, priority 2022, published 2026).
Results are given in words; binding and its absence hold for the method and conditions named. Some binding calls cover weakened binding; strength is not graded here.

Biological target: FM-0410 peptide (Ac-…)
Assay: hybridoma selection by ELISA against the peptide; no number given

B1: Ab17-IPL-1 (antibody, mouse IgG1, kappa, V domains shown)
VH: EVILVESGGGLVKPGGSLKLSCAASGFTFSSYAMSWVRQTPEKRLEWVATITGGGTYIYYPDSVKGRFTISRDNAKNTLYLQMSSLRSEDTAMYFCARIYGRNYYFDYWGQGTTLTVSS
VL: QIVLTQSPAIMSASLGEEITLTCSANSSVTYMHWYQQKSGTSPKLLIYSTSNLASGVPSRFSGSGSGTFYSLTISSVEAEDAADYYCHQWSSYRTFGGGTKLEIQR
binding: binds
